Reference: patent US20240082252A1, “COMPOSITIONS AND METHODS RELATING TO CANCER” (The Penn State Research Foundation, priority 2015, published 2024)
Some of these results come from one statement about several compounds together.

System: UACC 903 cells
Assay: cytotoxicity of pharmacological agents alone or combined (CellTiter 96), 48 hours
Type: cell-based, human
Details: single agents: 0.5 or 1.25 μM MK1775; 0.63 to 2.5 μM GDC0068; FIG. 3A
Procedure: Cytotoxicity of these agents alone or in combination in melanoma cells was measured by plating 2.5 to 5×10^3 cells into 96-well plates followed by growth for 24 to 48 hours in a humidified 37° C. cell culture incubator. […] Control cells were treated with vehicle (DMSO) alone. Cytotoxicity was measured using the CellTiter 96 Aqueous Non-Radioactive Cell Proliferation Assay (Promega). The combined effects of MK1775 and GDC0068 were quantified using CalcuSyn software.

`CC(C)NC[C@@H](C(=O)N1CCN(c2ncnc3c2[C@H](C)C[C@H]3O)CC1)c1ccc(Cl)cc1` [GDC0068, ipatasertib] was tested, and the reduced cell viability was 20 to 25%.

In the case of `C=CCn1c(=O)c2cnc(Nc3ccc(N4CCN(C)CC4)cc3)nc2n1-c1cccc(C(C)(C)O)n1` [MK1775, 2-allyl-1-(6-(2-hydroxypropan-2-yl)pyridin-2-yl)-6-((4-(4-methylpiperazin-1-yl)phenyl)amino)-1H-pyrazolo[3,4-d]pyrimidin-3(2H)-one], the reduced cell viability is reported as 20 to 25%.
